{"source": "PubChem BioAssay AID1159584 | Peter MacCallum Cancer Centre – 2016", "assay": "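Genes whose loss is lethal only together with E-cadherin loss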 (primary screen)", "cell system": "human MCF10A breast epithelial cells, parental and CDH1-null", "knock-down reagent": "siRNA against human genes", "measurement": "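Cell viability by CellTiter-Glo ATP luminescence, each line scaled to the mean of mock wells across plates, then CDH1-null over parental ratio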", "reading the numbers": "CDH1-null / parental viability ratio: higher = CDH1-null cells survive relatively better than parental", "note": "This is one part, drawn at random, of about 18,000 reagents tested. Not all columns of the deposit are shown. The record does not give: the amount of reagent, the time to read-out."}
{"target":"ZSCAN4 (GeneID 201516)","CDH1-null / parental viability ratio":0.86}
{"target":"GLIPR2 (GeneID 152007)","CDH1-null / parental viability ratio":0.92}
{"target":"SP7 (GeneID 121340)","CDH1-null / parental viability ratio":1.1}
{"target":"WNT7A (GeneID 7476)","CDH1-null / parental viability ratio":1}
{"target":"GPR12 (GeneID 2835)","CDH1-null / parental viability ratio":0.94}
{"target":"OAZ3 (GeneID 51686)","CDH1-null / parental viability ratio":0.83}
{"target":"CAPRIN1 (GeneID 4076)","CDH1-null / parental viability ratio":0.77}
{"target":"NAT8B (GeneID 51471)","CDH1-null / parental viability ratio":0.85}
{"target":"DEXI (GeneID 28955)","CDH1-null / parental viability ratio":1.18}
{"target":"IQCF2 (GeneID 389123)","CDH1-null / parental viability ratio":1.13}
{"target":"RPS10 (GeneID 6204)","CDH1-null / parental viability ratio":1.07}
{"target":"B3GAT1 (GeneID 27087)","CDH1-null / parental viability ratio":0.76}
{"target":"KRT85 (GeneID 3891)","CDH1-null / parental viability ratio":0.89}
{"target":"SYT9 (GeneID 143425)","CDH1-null / parental viability ratio":0.94}
{"target":"CPSF4 (GeneID 10898)","CDH1-null / parental viability ratio":1.16}
{"target":"COL11A2 (GeneID 1302)","CDH1-null / parental viability ratio":1.03}
{"target":"OR10AG1 (GeneID 282770)","CDH1-null / parental viability ratio":0.98}
{"target":"P3H2 (GeneID 55214)","CDH1-null / parental viability ratio":1.07}
{"target":"GPR119 (GeneID 139760)","CDH1-null / parental viability ratio":1.47}
{"target":"PDZD2 (GeneID 23037)","CDH1-null / parental viability ratio":1}
{"target":"ZNF639 (GeneID 51193)","CDH1-null / parental viability ratio":0.74}
{"target":"SC5D (GeneID 6309)","CDH1-null / parental viability ratio":1.11}
{"target":"YIPF1 (GeneID 54432)","CDH1-null / parental viability ratio":0.94}
{"target":"LARP1 (GeneID 23367)","CDH1-null / parental viability ratio":0.85}

Taken from above:
Result of LARP1 (GeneID 23367) under “CDH1-null / parental viability ratio”: 0.85
P3H2 (GeneID 55214), CDH1-null / parental viability ratio → 1.07
CAPRIN1 (GeneID 4076), CDH1-null / parental viability ratio = 0.77
